Data reported in publication PMC6203768.
No constants are given. Whether binding was seen depends on the method and setting. In cells and extracts the contact can be indirect. Some entries that bind do so weakly or less than the wild type. For some of these results: Sequences can lack the tags named with a protein.

Amino acid sequences for entries named in this document (tags omitted).
UniProt P53350: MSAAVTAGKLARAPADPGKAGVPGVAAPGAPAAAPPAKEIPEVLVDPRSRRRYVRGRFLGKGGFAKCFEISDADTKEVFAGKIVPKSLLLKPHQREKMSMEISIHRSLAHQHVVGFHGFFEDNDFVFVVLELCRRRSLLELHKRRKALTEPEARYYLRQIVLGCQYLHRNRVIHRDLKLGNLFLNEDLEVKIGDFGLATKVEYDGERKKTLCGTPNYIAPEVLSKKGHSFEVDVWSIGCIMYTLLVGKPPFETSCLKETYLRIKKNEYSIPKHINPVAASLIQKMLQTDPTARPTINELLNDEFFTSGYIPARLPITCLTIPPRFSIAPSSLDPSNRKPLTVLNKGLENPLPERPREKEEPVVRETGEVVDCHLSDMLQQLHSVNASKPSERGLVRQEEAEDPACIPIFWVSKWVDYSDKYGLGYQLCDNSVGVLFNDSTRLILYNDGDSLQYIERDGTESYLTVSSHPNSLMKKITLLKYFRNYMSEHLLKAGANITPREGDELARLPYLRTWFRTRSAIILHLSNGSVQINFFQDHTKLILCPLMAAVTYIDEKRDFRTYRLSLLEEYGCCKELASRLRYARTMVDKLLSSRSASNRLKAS
UniProt Q96GD4: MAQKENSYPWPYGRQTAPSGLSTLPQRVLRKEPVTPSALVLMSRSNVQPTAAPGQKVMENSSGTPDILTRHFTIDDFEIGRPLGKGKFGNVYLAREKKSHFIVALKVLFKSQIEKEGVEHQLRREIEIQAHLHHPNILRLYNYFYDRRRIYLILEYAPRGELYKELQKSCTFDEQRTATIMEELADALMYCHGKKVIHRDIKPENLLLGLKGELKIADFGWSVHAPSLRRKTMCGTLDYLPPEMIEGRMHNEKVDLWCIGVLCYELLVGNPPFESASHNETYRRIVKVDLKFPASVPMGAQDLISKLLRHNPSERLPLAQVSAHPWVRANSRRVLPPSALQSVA

Columns and labels:
[1] = target: T1, Flag-tagged TAP-BEX4 (full-length human brain-expressed X-linked 4 in pTAP) (human) (UniProt Q9NWD9); assay: pull-down; tandem affinity purification (TAP) from extracts of asynchronously growing 293T cells transfected with TAP or Flag-tagged TAP-BEX4; bound proteins blotted with anti-Flag, anti-PLK1 and anti-actin
T1 sequence: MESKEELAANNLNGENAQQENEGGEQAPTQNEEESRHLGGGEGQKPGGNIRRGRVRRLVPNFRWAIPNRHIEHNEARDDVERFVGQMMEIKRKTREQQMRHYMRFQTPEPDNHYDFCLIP

[2] = target: T2, GST-BEX4 (full-length human BEX4 in pGEX-KG) (human) (UniProt Q9NWD9); assay: pull-down; beads bound to GST alone or GST-BEX4, incubated with HeLa cell extracts (asynchronous; nocodazole 200 ng/ml for 16 h; released into fresh media for 2 h); bound proteins analysed by SDS-PAGE and immunoblot; only the target purified
T2 sequence: T1 sequence

[3] = target: T3, brain-expressed X-linked 4 (BEX4), endogenous (human (endogenous in HeLa)) (UniProt Q9NWD9); assay: co-IP; HeLa cell extracts with or without nocodazole (200 ng/ml), immunoprecipitated with normal IgG or anti-BEX4 antibody; blotted with anti-BEX4, anti-PLK1, anti-CDK1 and anti-actin
T3 sequence: T1 sequence

Row | binding [1] | binding [2] | binding [3] | Substance
1 | binds | binds | binds | Polo-like kinase 1 (PLK1), endogenous (from UniProt P53350 1-603) (enzyme)
2 | – | no binding | – | aurora B kinase, endogenous (from UniProt Q96GD4 1-344) (enzyme)
